Experimental data: PubChem BioAssay AID743121 (NCATS, 2013)
The whole screen tested about 26,000 reagents; shown is a part drawn at random. 167 of all reagents (0.63%) count as active. 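Calls are per gene from RSA p-values that are not deposited; an individual active-marked siRNA can sensitise only weakly.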 Unmarked entries are inactive. Reagents against one gene are numbered here. Further read-outs or replicates are left out here. Reagent sequences are not shown.

Assay: 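Genes whose silencing strengthens cell killing by camptothecin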 (primary screen)
System: MDA-MB-231 cells, a human breast cancer line
Knock-down reagent: single siRNA against human genes, 20 nM siRNA (0.8 pmol per well)
Time to read-out: 120 h (drug added 48 h after transfection, read 72 h later)
Challenge: camptothecin 20 nM (about EC30) for 72 h; vehicle 0.1% DMSO in parallel plates
Measured: 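CellTiter-Glo ATP signal, scaled to control siRNA as percent viability; sensitisation given as log2 of untreated divided by camptothecin-treated viability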
Reading the numbers: log2 vehicle/camptothecin viability: higher = stronger sensitisation to camptothecin; viability with camptothecin: higher = more viable cells
Call rule: 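Each gene scored by redundant siRNA activity (RSA) over its individual siRNA ratios; a gene is called active at p < 0.001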

no.	target gene	siRNA no.	log2 vehicle/camptothecin viability	viability with camptothecin (% of control)
1	PIP5K1A	1	0.135	76.4
2	PIP5K1A	2	-0.131	53.7
3	PIP5K1A	3	0.197	87
4	PIP5K1A	4	-0.345	99
5	ITGAD	1	0.0571	101
6	ITGAD	2	-0.201	69.5
7	ITGAD	3	0.529	66.9
8	ITGAD	4	-0.207	74.7
9	SH2D3A	1	-0.298	43.5
10	SH2D3A	2	0.239	23.6
11	SH2D3A	3	0.0547	97.4
12	SH2D3A	4	-0.42	66.5
13	YWHAB	1	-0.315	83.7
14	YWHAB	2	-0.197	137
15	YWHAB	3	-0.0837	80.9
16	YWHAB	4	-0.331	75.6
17	PRKACA	1	0.0277	93.3
18	PRKACA	2	0.0834	73.1
19	PRKACA	3	0.0756	77.8
20	PRKACA	4	0.178	67.2
21	SULF2	1	-0.185	59
22	SULF2	2	0.337	68.4
23	SULF2	3	-0.4	18.2
24	SULF2	4	0.657	46.4
25	NSD1	1	0.134	87
26	NSD1	2	-0.0542	91.4
27	NSD1	3	-0.365	69.4
28	NSD1	4	-0.502	83.4
29	OR2B11	1	-0.149	73
30	OR2B11	2	0.196	84.3
31	OR2B11	3	-0.417	79.6
32	OR2B11	4	-0.439	80.8
33	DKK4	1	0.0484	89.3
34	DKK4	2	-0.18	63.4
35	DKK4	3	-0.63	25.8
36	DKK4	4	-0.256	69.3
37	PRSS30P	1	0.0288	103
38	PRSS30P	2	0.172	40.7
39	PRSS30P	3	-0.0216	87.4
40	CTSB	1	-0.152	113
41	CTSB	2	-0.445	116
42	CTSB	3	-0.126	94.9
43	CTSB	4	-0.832	12.4
44	VNN2	1	0.0643	98.5
45	VNN2	2	0.102	74.9
46	VNN2	3	-0.264	105
47	VNN2	4	-0.0164	71.3
48	CLPP	1	-0.679	46.5
49	CLPP	2	0.509	9.16
50	CLPP	3	-0.185	73.3
51	CLPP	4	-0.399	89
52	WNT7A	1	-0.0757	88.4
53	WNT7A	2	-0.341	42.4
54	WNT7A	3	-0.256	103
55	WNT7A	4	0.122	85.9
56	STAT3	1	-0.237	98.9
57	STAT3	2	-0.00388	61.7
58	STAT3	3	-0.316	106
59	STAT3	4	-0.261	101
60	PTCHD1	1	-0.0356	102
61	PTCHD1	2	-0.313	88.3
62	PTCHD1	3	-0.57	92.8
63	PTCHD1	4	-0.254	111
64	RHOB	1	-0.0188	48.5
65	RHOB	2	-0.461	108
66	RHOB	3	-0.205	66.3
67	GLMN	1	-0.035	84.3
68	GLMN	2	0.00636	95.8
69	GLMN	3	-0.229	8.34
70	GLMN	4	0.675	62

Copied from above for reference:
no.	target gene	siRNA no.	log2 vehicle/camptothecin viability	viability with camptothecin (% of control)
42	CTSB	3	-0.126	94.9
43	CTSB	4	-0.832	12.4
44	VNN2	1	0.0643	98.5
45	VNN2	2	0.102	74.9
